Measurements from PubChem BioAssay AID493014 (National Center for Advancing Translational Sciences (NCATS), 2011).
This is one part of the list. Shown are side measurements of this screen, not its main read-out; they come without a call. Most of these compounds were active or inconclusive in the main read-out, so they are no random draw. Words in brackets tell the shape of the fitted curve; partial curves, single points and poor fits give uncertain potencies.

Experiment: qHTS Assay to Find Inhibitors of Chronic Active B-Cell Receptor Signaling
Settings: ABC-DLBCL IkBa-CBG/CBR reporter, luminescence ratio (green luciferase fused to IkBa over red control in TMD8 lymphoma cells), 4 h
In short: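 TMD8 ABC-DLBCL cells carrying doxycycline-inducible green luciferase fused to IkappaBalpha plus unfused red luciferase were exposed to compounds (up to 46 uM) for 4 hrs at 37C. Activity came from the overlap-corrected green/red luminescence ratio.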

[1] = measured here: CBR red luminescence, cell number

## CCCc1cc(-c2nc(-c3ccc(C)cc3)cs2)ccn1
[1]
  AC50: 11.6 µM [rising, partial curve]

## CC(C)C(=O)Nc1ccc(-c2csc(-c3ccccc3)n2)cc1
[1]
  AC50: 2.51 µM [rising, full curve, poor fit]

## N/C(=N\OC(=O)COc1ccc(Cl)cc1Cl)c1ccncc1
[1]
  AC50: 2.51 µM [rising, full curve]

## Cc1ccc(C(=O)N2CCN(c3ccc([N+](=O)[O-])c(NCc4cccnc4)c3)CC2)cc1
[1]
  AC50: 4.11 µM [rising, partial curve, poor fit]

## Cc1ccc(N2CC(C(=O)Nc3nccs3)CC2=O)cc1Cl (centres undefined)
[1]
  AC50: 13 µM [falling, partial curve, poor fit]
Measured here: IkBa-CBG green luminescence
  AC50: 25.9 µM [rising, partial curve, poor fit]

## Cc1oc(=O)c(NC(=O)c2ccccc2)cc1C(=O)c1ccccc1
[1]
  AC50: 3.55 µM [falling, full curve]

## CCn1c2ccccc2c2nnc(NN)nc21
[1]
  AC50: 25.9 µM [falling, single point]

## CSc1nc(NCC(C)O)c2c3c(sc2n1)CN(C)CC3 (centres undefined)
[1]
  AC50: 17.8 µM [falling, partial curve, poor fit]

## COc1cccc(/C=N/c2oc(-c3ccccc3)cc2C#N)c1O
[1]
  AC50: 8.2 µM [falling, partial curve, poor fit]

## O=C(N/N=C/c1ccc2c(c1)OCO2)c1cccs1
[1]
  AC50: 5.8 µM [falling, partial curve]

## Cc1[nH]c2ccccc2c1C(O)CN1CCN(c2cccc(C(F)(F)F)c2)CC1 (centres undefined)
[1]
  AC50: 3.55 µM [falling, full curve, poor fit]

## C/C(CCc1oc2ccc(Cl)cc2c1-c1ccc(C)o1)=N\O
[1]
  AC50: 25.9 µM [falling, single point]

## O=C(O)C1C2C=CC(C2)C1C(=O)N1CCc2ccccc21 (centres undefined)
[1]
  AC50: 29.1 µM [falling, partial curve, poor fit]

## O=C(CSc1nc2ccccc2n1S(=O)(=O)c1cccc([N+](=O)[O-])c1)NCCc1ccccc1
[1]
  AC50: 9.2 µM [rising, partial curve, poor fit]

## CCOC(=O)c1nc(Nc2ccc(C)cc2)c2ccccc2n1
[1]
  AC50: 32.6 µM [falling, single point]

## COc1ccc(NC(=O)CC2CC3CCC2C3)cn1 (centres undefined)
[1]
  AC50: 7.94 µM [rising, partial curve, poor fit]

## Cc1ccccc1C(=O)NC1CC2CCC(C1)N2Cc1ccccc1 (centres undefined)
[1]
  AC50: 35.5 µM [falling, single point]

## Cc1ccc(S(=O)(=O)c2nc(NCCN(C)C)sc2Cl)cc1
[1]
  AC50: 0.82 µM [rising, full curve, poor fit]
